Data from US6764826B2, “Inhibitors of C-reactive protein induced inflammation” (Board of Regents, The University of Texas System, priority 2000, dated 2004).
For at least one compound, name, drawing or mass did not settle the structure.

System: MCP-1 Induction by CRP
Experiment: Modulation of CRP effects by statin, aspirin and PPAR activators: MCP-1 secretion in HUVEC, sandwich ELISA
Type: cell-based, human
Procedure: Experiments were performed in HUVEC. […] After 2 hours, the cells were incubated with C-reactive protein or with IL-1β 10 ng/mL for 24 hours. […] Secretion of MCP-1 and RANTES were assessed by sandwich ELISA (Colorimetric Quantikine, by R and D Systems). All determinations were performed in duplicate. Data were expressed as mean±SD of 5-6 separate experiments. Cell viability was assessed by staining with trypan blue.

Row | Structure (SMILES) | effect on MCP-1 secretion induced by CRP (in words) (low concentrations) | effect on MCP-1 secretion induced by CRP (in words) (test substance 200 μM) | effect on secretion of MCP-1 induced by CRP (in words) (test substance 100 μM)
1 | CC1(COc2ccc(CC3SC(=O)NC3=O)cc2)CCCCC1 (stereo not shown) [ciglitazone] | no significant effects | significant inhibition | 
2 | CC(C)OC(=O)C(C)(C)Oc1ccc(C(=O)c2ccc(Cl)cc2)cc1 [fenofibrate] |  |  | completely inhibited
3 | Cc1c(C)c2c(c(C)c1O)CCC(C)(COc1ccc(CC3SC(=O)NC3=O)cc1)O2 (stereo not shown) [troglitazone] | no significant effects |  | 
